This is one part of the list.
Key:
Assay in all cases: glycan array binding signal (z-score within array); higher = stronger binding
Conditions in all cases: glycan notation: IUPAC condensed, linker removed
[1] = biological target: Fuc(a1-2)Gal6S(b1-3)GlcNAc6S
How it was run: (§1)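 Arrays were curated from the Consortium for Functional Glycomics database, 3228 in total, and kept only where the protein sequence was available. Binding is expressed as a within-array Z-score. This score was averaged across arrays of the same protein sequence at different concentrations or buffers and across linkers, and negative values can be read as non-binding.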

Fuc(a1-2)Gal6S(b1-4)Glc = biological target: Fuc(a1-2)Gal6S(b1-4)Glc
How it was run: as §1

[2] = biological target: Fuc(a1-2)Gal6S(b1-4)Glc6S
How it was run: as §1

Fuc(a1-2)[Gal(a1-3)]Gal = biological target: Fuc(a1-2)[Gal(a1-3)]Gal
How it was run: as §1

[3] = biological target: Fuc(a1-2)[Gal(a1-3)]Gal(b1-3)GalNAc
How it was run: as §1

[4] = biological target: Fuc(a1-2)[Gal(a1-3)]Gal(b1-3)GalNAc(b1-3)Gal(a1-4)Gal(b1-4)Glc
How it was run: as §1

[5] = biological target: Fuc(a1-2)[Gal(a1-3)]Gal(b1-3)GlcNAc
How it was run: as §1

[6] = biological target: Fuc(a1-2)[Gal(a1-3)]Gal(b1-3)GlcNAc(b1-2)Man(a1-3)[Fuc(a1-2)[Gal(a1-3)]Gal(b1-3)GlcNAc(b1-2)Man(a1-6)]Man(b1-4)GlcNAc(b1-4)GlcNAc
How it was run: as §1

[7] = biological target: Fuc(a1-2)[Gal(a1-3)]Gal(b1-3)GlcNAc(b1-2)Man(a1-3)[Fuc(a1-2)[Gal(a1-3)]Gal(b1-3)GlcNAc(b1-2)Man(a1-6)]Man(b1-4)GlcNAc(b1-4)[Fuc(a1-6)]GlcNAc
How it was run: as §1

[8] = biological target: Fuc(a1-2)[Gal(a1-3)]Gal(b1-3)GlcNAc(b1-3)GalNAc
How it was run: as §1

[9] = biological target: Fuc(a1-2)[Gal(a1-3)]Gal(b1-3)GlcNAc(b1-6)GalNAc
How it was run: as §1

[10] = biological target: Fuc(a1-2)[Gal(a1-3)]Gal(b1-4)Glc
How it was run: as §1

[11] = biological target: Fuc(a1-2)[Gal(a1-3)]Gal(b1-4)GlcNAc
How it was run: as §1

[12] = biological target: Fuc(a1-2)[Gal(a1-3)]Gal(b1-4)GlcNAc(b1-2)Man
How it was run: as §1

[13] = biological target: Fuc(a1-2)[Gal(a1-3)]Gal(b1-4)GlcNAc(b1-2)Man(a1-3)[Fuc(a1-2)[Gal(a1-3)]Gal(b1-4)GlcNAc(b1-2)Man(a1-6)]Man(b1-4)GlcNAc(b1-4)GlcNAc
How it was run: as §1

[14] = biological target: Fuc(a1-2)[Gal(a1-3)]Gal(b1-4)GlcNAc(b1-2)Man(a1-3)[Fuc(a1-2)[Gal(a1-3)]Gal(b1-4)GlcNAc(b1-2)Man(a1-6)]Man(b1-4)GlcNAc(b1-4)[Fuc(a1-6)]GlcNAc
How it was run: as §1

[15] = biological target: Fuc(a1-2)[Gal(a1-3)]Gal(b1-4)GlcNAc(b1-3)GalNAc
How it was run: as §1

[16] = biological target: Fuc(a1-2)[Gal(a1-3)]Gal(b1-4)GlcNAc(b1-6)GalNAc
How it was run: as §1

[17] = biological target: Fuc(a1-2)[Gal(a1-3)]Gal(b1-4)[Fuc(a1-3)]Glc
How it was run: as §1

[18] = biological target: Fuc(a1-2)[Gal(a1-3)]Gal(b1-4)[Fuc(a1-3)]GlcNAc
How it was run: as §1

[19] = biological target: Fuc(a1-2)[Gal(a1-3)]Gal(b1-4)[Fuc(a1-3)]GlcNAc(b1-3)GalNAc
How it was run: as §1

[20] = biological target: Fuc(a1-2)[Gal(a1-4)]Gal(b1-4)GlcNAc
How it was run: as §1

[21] = biological target: Fuc(a1-2)[GalNAc(a1-3)]Gal
How it was run: as §1

[22] = biological target: Fuc(a1-2)[GalNAc(a1-3)]Gal(b1-3)GalNAc(a1-3)[Fuc(a1-2)]Gal(b1-4)GlcNAc
How it was run: as §1

[23] = biological target: Fuc(a1-2)[GalNAc(a1-3)]Gal(b1-3)GalNAc(b1-3)Gal(a1-4)Gal(b1-4)Glc
How it was run: as §1

[24] = biological target: Fuc(a1-2)[GalNAc(a1-3)]Gal(b1-3)GlcNAc
How it was run: as §1

[25] = biological target: Fuc(a1-2)[GalNAc(a1-3)]Gal(b1-3)GlcNAc(b1-2)Man(a1-3)[Fuc(a1-2)[GalNAc(a1-3)]Gal(b1-3)GlcNAc(b1-2)Man(a1-6)]Man(b1-4)GlcNAc(b1-4)GlcNAc
How it was run: as §1

[26] = biological target: Fuc(a1-2)[GalNAc(a1-3)]Gal(b1-3)GlcNAc(b1-2)Man(a1-3)[Fuc(a1-2)[GalNAc(a1-3)]Gal(b1-3)GlcNAc(b1-2)Man(a1-6)]Man(b1-4)GlcNAc(b1-4)[Fuc(a1-6)]GlcNAc
How it was run: as §1

[27] = biological target: Fuc(a1-2)[GalNAc(a1-3)]Gal(b1-3)GlcNAc(b1-3)GalNAc
How it was run: as §1

[28] = biological target: Fuc(a1-2)[GalNAc(a1-3)]Gal(b1-3)GlcNAc(b1-6)GalNAc
How it was run: as §1

[29] = biological target: Fuc(a1-2)[GalNAc(a1-3)]Gal(b1-4)Glc
How it was run: as §1

[30] = biological target: Fuc(a1-2)[GalNAc(a1-3)]Gal(b1-4)GlcNAc
How it was run: as §1

[31] = biological target: Fuc(a1-2)[GalNAc(a1-3)]Gal(b1-4)GlcNAc(b1-2)Man
How it was run: as §1

[32] = biological target: Fuc(a1-2)[GalNAc(a1-3)]Gal(b1-4)GlcNAc(b1-2)Man(a1-3)[Fuc(a1-2)[GalNAc(a1-3)]Gal(b1-4)GlcNAc(b1-2)Man(a1-6)]Man(b1-4)GlcNAc(b1-4)GlcNAc
How it was run: as §1

[33] = biological target: Fuc(a1-2)[GalNAc(a1-3)]Gal(b1-4)GlcNAc(b1-2)Man(a1-3)[Fuc(a1-2)[GalNAc(a1-3)]Gal(b1-4)GlcNAc(b1-2)Man(a1-6)]Man(b1-4)GlcNAc(b1-4)[Fuc(a1-6)]GlcNAc
How it was run: as §1

[34] = biological target: Fuc(a1-2)[GalNAc(a1-3)]Gal(b1-4)GlcNAc(b1-3)Gal(b1-4)GlcNAc
How it was run: as §1

[35] = biological target: Fuc(a1-2)[GalNAc(a1-3)]Gal(b1-4)GlcNAc(b1-3)Gal(b1-4)GlcNAc(b1-3)Gal(b1-4)GlcNAc
How it was run: as §1

[36] = biological target: Fuc(a1-2)[GalNAc(a1-3)]Gal(b1-4)GlcNAc(b1-3)GalNAc
How it was run: as §1

[37] = biological target: Fuc(a1-2)[GalNAc(a1-3)]Gal(b1-4)GlcNAc(b1-3)[Fuc(a1-2)[GalNAc(a1-3)]Gal(b1-4)GlcNAc(b1-6)]GalNAc
How it was run: as §1

[38] = biological target: Fuc(a1-2)[GalNAc(a1-3)]Gal(b1-4)GlcNAc(b1-6)GalNAc
How it was run: as §1

[39] = biological target: Fuc(a1-2)[GalNAc(a1-3)]Gal(b1-4)[Fuc(a1-3)]GlcNAc
How it was run: as §1

[40] = biological target: Fuc(a1-2)[GalNAc(a1-3)]Gal(b1-4)[Fuc(a1-3)]GlcNAc(b1-3)GalNAc
How it was run: as §1

[41] = biological target: Fuc(a1-2)[GalNAc(a1-4)]Gal(b1-4)GlcNAc
How it was run: as §1

[42] = biological target: Fuc(a1-2)[GalNAc(b1-3)]Gal
How it was run: as §1

Fuc(a1-3)GlcNAc = biological target: Fuc(a1-3)GlcNAc
How it was run: as §1

B1: Pbx2CASH domain (Cryptococcus neoformans) (protein)
chain: GIPGPNRLYRLSGPIIFTAADQEIATYGYPTGSERAVLRVEGRNTATAIQGDCRRCARVSVKNLVVDGNRKKLGRMRDFQLATGLVVLGGNEGQSIQNSWIKNPRGFTAIHIREGDKLQCSGARVEKNEIGPVGEEYDPEKDGDDPEMSPLGRPLADGVSIACRDSFIRDNTFRDNTDAAIVVYCSPGTLIHA
- glycan array binding signal (z-score) [1]: 2.37
- glycan array binding signal (z-score) (Fuc(a1-2)Gal6S(b1-4)Glc): -0.081
- glycan array binding signal (z-score) [2]: -0.343
- glycan array binding signal (z-score) (Fuc(a1-2)[Gal(a1-3)]Gal): -0.432
- glycan array binding signal (z-score) [3]: 0.102
- glycan array binding signal (z-score) [4]: -0.386
- glycan array binding signal (z-score) [5]: 0.142
- glycan array binding signal (z-score) [6]: -0.314
- glycan array binding signal (z-score) [7]: -0.272
- glycan array binding signal (z-score) [8]: -0.448
- glycan array binding signal (z-score) [9]: -0.382
- glycan array binding signal (z-score) [10]: -0.262
- glycan array binding signal (z-score) [11]: -0.657
- glycan array binding signal (z-score) [12]: -0.125
- glycan array binding signal (z-score) [13]: -0.021
- glycan array binding signal (z-score) [14]: -0.104
- glycan array binding signal (z-score) [15]: 0.243
- glycan array binding signal (z-score) [16]: 0.474
- glycan array binding signal (z-score) [17]: -0.36
- glycan array binding signal (z-score) [18]: -0.331
- glycan array binding signal (z-score) [19]: 0.579
- glycan array binding signal (z-score) [20]: -0.583
- glycan array binding signal (z-score) [21]: -0.604
- glycan array binding signal (z-score) [22]: 0.223
- glycan array binding signal (z-score) [23]: -0.515
- glycan array binding signal (z-score) [24]: -0.67
- glycan array binding signal (z-score) [25]: -0.432
- glycan array binding signal (z-score) [26]: -0.184
- glycan array binding signal (z-score) [27]: 0.177
- glycan array binding signal (z-score) [28]: -0.077
- glycan array binding signal (z-score) [29]: -0.382
- glycan array binding signal (z-score) [30]: -0.559
- glycan array binding signal (z-score) [31]: -0.258
- glycan array binding signal (z-score) [32]: 1.37
- glycan array binding signal (z-score) [33]: -0.315
- glycan array binding signal (z-score) [34]: -0.704
- glycan array binding signal (z-score) [35]: -0.374
- glycan array binding signal (z-score) [36]: 0.137
- glycan array binding signal (z-score) [37]: -0.248
- glycan array binding signal (z-score) [38]: -0.641
- glycan array binding signal (z-score) [39]: -0.338
- glycan array binding signal (z-score) [40]: 2.74
- glycan array binding signal (z-score) [41]: -0.683
- glycan array binding signal (z-score) [42]: -0.12
- glycan array binding signal (z-score) (Fuc(a1-3)GlcNAc): -0.751
